From article PMC11358041
Results are given in words; binding and its absence hold for the method and conditions named. In cells and extracts the contact can be indirect. Some entries that bind do so weakly or less than the wild type.

Sequences of proteins named here, by UniProt entry; tags and fusion partners are left off.
UniProt Q8K371: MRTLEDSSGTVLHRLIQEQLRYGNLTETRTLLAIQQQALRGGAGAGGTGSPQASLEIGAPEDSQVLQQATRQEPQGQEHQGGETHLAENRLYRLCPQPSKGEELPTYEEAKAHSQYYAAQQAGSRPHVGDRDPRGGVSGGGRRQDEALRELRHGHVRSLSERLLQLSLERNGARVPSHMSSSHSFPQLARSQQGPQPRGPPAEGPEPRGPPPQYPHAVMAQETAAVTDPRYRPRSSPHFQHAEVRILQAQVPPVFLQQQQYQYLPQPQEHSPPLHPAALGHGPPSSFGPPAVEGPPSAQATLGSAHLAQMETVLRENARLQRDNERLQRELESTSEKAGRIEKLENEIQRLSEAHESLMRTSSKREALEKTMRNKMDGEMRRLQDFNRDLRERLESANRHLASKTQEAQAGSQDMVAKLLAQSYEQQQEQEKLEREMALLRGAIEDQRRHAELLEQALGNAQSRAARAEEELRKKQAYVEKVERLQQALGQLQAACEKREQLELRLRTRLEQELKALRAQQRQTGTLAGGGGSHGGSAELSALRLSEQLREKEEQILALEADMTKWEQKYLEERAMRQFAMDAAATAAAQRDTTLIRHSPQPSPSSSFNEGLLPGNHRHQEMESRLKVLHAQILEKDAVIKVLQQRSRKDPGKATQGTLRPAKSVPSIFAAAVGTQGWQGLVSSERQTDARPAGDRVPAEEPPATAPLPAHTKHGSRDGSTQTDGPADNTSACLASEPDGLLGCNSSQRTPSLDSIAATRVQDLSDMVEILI
UniProt Q9Y2J4: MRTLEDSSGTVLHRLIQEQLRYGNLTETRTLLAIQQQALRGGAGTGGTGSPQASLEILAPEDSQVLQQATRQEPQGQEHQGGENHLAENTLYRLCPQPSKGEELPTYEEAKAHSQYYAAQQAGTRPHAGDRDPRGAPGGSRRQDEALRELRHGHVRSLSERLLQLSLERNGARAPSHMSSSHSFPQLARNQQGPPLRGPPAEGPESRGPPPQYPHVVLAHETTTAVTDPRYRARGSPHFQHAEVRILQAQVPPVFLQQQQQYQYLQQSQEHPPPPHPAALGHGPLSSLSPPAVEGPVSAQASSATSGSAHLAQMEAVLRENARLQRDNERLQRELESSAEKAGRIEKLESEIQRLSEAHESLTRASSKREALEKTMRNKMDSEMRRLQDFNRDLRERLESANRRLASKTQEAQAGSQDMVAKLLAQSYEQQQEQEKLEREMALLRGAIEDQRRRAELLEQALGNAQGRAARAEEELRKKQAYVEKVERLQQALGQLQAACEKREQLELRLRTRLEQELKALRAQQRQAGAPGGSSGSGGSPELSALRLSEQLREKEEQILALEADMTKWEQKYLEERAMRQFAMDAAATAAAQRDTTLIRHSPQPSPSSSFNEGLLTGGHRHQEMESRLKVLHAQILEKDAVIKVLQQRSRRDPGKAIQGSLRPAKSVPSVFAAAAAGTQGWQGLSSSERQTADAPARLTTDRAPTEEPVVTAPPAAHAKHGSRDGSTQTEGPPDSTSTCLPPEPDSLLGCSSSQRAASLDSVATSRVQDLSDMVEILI
UniProt Q02248: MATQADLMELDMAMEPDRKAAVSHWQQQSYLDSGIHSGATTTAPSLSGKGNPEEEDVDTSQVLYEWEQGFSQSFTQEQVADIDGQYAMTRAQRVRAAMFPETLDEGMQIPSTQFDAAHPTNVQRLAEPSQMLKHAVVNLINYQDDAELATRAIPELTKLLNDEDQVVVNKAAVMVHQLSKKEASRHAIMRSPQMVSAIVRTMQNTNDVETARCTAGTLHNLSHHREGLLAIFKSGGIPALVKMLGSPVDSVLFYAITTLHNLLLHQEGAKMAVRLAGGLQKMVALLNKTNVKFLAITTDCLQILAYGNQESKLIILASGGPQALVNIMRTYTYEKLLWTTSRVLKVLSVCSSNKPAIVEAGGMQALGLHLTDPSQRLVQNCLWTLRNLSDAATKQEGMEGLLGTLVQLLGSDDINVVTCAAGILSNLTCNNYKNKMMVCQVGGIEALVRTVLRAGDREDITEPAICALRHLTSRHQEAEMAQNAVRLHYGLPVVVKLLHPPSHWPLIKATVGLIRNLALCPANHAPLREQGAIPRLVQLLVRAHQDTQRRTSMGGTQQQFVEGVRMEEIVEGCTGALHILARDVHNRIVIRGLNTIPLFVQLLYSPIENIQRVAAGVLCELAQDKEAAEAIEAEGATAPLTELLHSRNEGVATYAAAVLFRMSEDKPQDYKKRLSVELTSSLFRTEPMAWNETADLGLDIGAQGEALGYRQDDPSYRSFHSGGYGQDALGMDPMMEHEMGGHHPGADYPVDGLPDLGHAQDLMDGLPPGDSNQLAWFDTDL

Assays:
[1] = target: AmotL2 (mouse, endogenous) (mouse (endogenous in MS1 cells, lung and aorta)) (UniProt Q8K371); experiment: co-IP; mouse lung tissue lysate (1% Triton X-100 lysis buffer), IP with AmotL2 antibody or rabbit IgG, Protein G beads, western blot
[2] = target: AmotL2 (human, endogenous) (human (endogenous in HUVECs and HAoECs)) (UniProt Q9Y2J4); experiment: co-IP; HUVEC lysate, static or after 96 h on an orbital shaker (300 r.p.m.), cells at the periphery of the dish harvested; IP with AmotL2 antibody, western blot
[3] = target: AmotL2 (mouse, endogenous) (mouse (endogenous in MS1 cells, lung and aorta)) (UniProt Q8K371); experiment: proximity ligation; PLA (NaveniFlex MR kit) with AmotL2 and p120 catenin antibodies on whole-mounted mouse descending aorta and inferior vena cava; amotl2 endothelial knockout tissue as control

| Molecule | binding [1] | also measured |
| --- | --- | --- |
| β-catenin (mouse, endogenous) (from UniProt Q02248 1-781) | binds | – |
| VE-cadherin (mouse, endogenous) (protein, UniProt P55284 46-784) DWIWNQMHIDEEKNESLPHYVGKIKSNVNRQNAKYVLQGEFAGKIFGVDANTGNVLAYERLDREKVSEYFLTALIVDKNTNKNLEQPSSFTVKVHDINDNWPVFSHQVFNASVPEMSAIGTSVIRVTAVDADDPTVAGHATVLYQIVKGNEYFSIDNSGLIFTKIKNLDREKQAEYKIVVETQDALGLRGESGTATVMIRLEDINDNFPVFTQSTYTFSVPEDIRVGKPLGFLTVVDPDEPQNRMTKYSIMQGEYRDTFTIETDPKRNEGIIKPTKSLDYEVIQQYTFYIEATDPTIRYEYLSSTSGKNKAMVTINVLDVDEPPVFQRHFYHFKLPENQKKPLIGTVVAKDPDKAQRSIGYSIRKTSDRGQFFRITKQGNIYNEKELDRETYAWYNLTVEANELDSRGNPVGKESIVQVYIEVLDENDNPPEFAQPYEPKVCENAAQGKLVVQISATDKDVVPVNPKFKFALKNEDSNFTLINNHDNTANITVKYGQFNREHAKFHYLPVLISDNGVPSLTGTSTLTVGVCKCNEQGEFTFCEEMAAQAGVSIQALVAIFLCILTITVITLLIILRRRIRKQAHAHSKSALEIHEQLVTYDEEGGGEMDTTSYDVSVLNSVRGGSTKPLRSTMDARPAVYTQVQKPPRLAPGLHGGPREMATMIDVKKEEADNDGGGPPYDTLHIYGYEGAESIAESLSSLSTNSSDSDIDYDFLNDWGPRFKMLAELYGSDPQEELII | binds | – |
| VE-cadherin (human, endogenous) (protein, UniProt P33151 48-784) DWIWNQMHIDEEKNTSLPHHVGKIKSSVSRKNAKYLLKGEYVGKVFRVDAETGDVFAIERLDRENISEYHLTAVIVDKDTGENLETPSSFTIKVHDVNDNWPVFTHRLFNASVPESSAVGTSVISVTAVDADDPTVGDHASVMYQILKGKEYFAIDNSGRIITITKSLDREKQARYEIVVEARDAQGLRGDSGTATVLVTLQDINDNFPFFTQTKYTFVVPEDTRVGTSVGSLFVEDPDEPQNRMTKYSILRGDYQDAFTIETNPAHNEGIIKPMKPLDYEYIQQYSFIVEATDPTIDLRYMSPPAGNRAQVIINITDVDEPPIFQQPFYHFQLKENQKKPLIGTVLAMDPDAARHSIGYSIRRTSDKGQFFRVTKKGDIYNEKELDREVYPWYNLTVEAKELDSTGTPTGKESIVQVHIEVLDENDNAPEFAKPYQPKVCENAVHGQLVLQISAIDKDITPRNVKFKFILNTENNFTLTDNHDNTANITVKYGQFDREHTKVHFLPVVISDNGMPSRTGTSTLTVAVCKCNEQGEFTFCEDMAAQVGVSIQAVVAILLCILTITVITLLIFLRRRLRKQARAHGKSVPEIHEQLVTYDEEGGGEMDTTSYDVSVLNSVRRGGAKPPRPALDARPSLYAQVQKPPRHAPGAHGGPGEMAAMIEVKKDEADHDGDGPPYDTLHIYGYEGSESIAESLSSLGTDSSDSDVDYDFLNDWGPRFKMLAELYGSDPREELLY | – | binding [2]: binds |
| p120 catenin (mouse, endogenous) (protein, UniProt P30999 1-938) MDDSEVESTASILASVKEQEAQFEKLTRALEEERRHVSAQLERVRVSPQDANSLMANGTLTRRHQNGRFVGDADLERQKFSDLKLNGPQDHNHLLYSTIPRMQEPGQIVETYTEEDPEGAMSVVSVETTDDGTTRRTETTVKKVVKTMTTRTVQPVPMGPDGLPVDASAVSNNYIQTLGRDFRKNGNGGPGPYVGQAGTATLPRNFHYPPDGYGRHYEDGYPGGSDNYGSLSRVTRIEERYRPSMEGYRAPSRQDVYGPQPQVRVGGSSVDLHRFHPEPYGLEDDQRSMGYDDLDYGMMSDYGTARRTGTPSDPRRRLRSYEDMIGEEVPPDQYYWAPLAQHERGSLASLDSLRKGMPPPSNWRQPELPEVIAMLGFRLDAVKSNAAAYLQHLCYRNDKVKTDVRKLKGIPILVGLLDHPKKEVHLGACGALKNISFGRDQDNKIAIKNCDGVPALVRLLRKARDMDLTEVITGTLWNLSSHDSIKMEIVDHALHALTDEVIIPHSGWEREPNEDCKPRHIEWESVLTNTAGCLRNVSSERSEARRKLRECDGLVDALIFIVQAEIGQKDSDSKLVENCVCLLRNLSYQVHREIPQAERYQEALPTVANSTGPHAASCFGAKKGKDEWFSRGKKPTEDPANDTVDFPKRTSPARGYELLFQPEVVRIYISLLKESKTPAILEASAGAIQNLCAGRWTYGRYIRSALRQEKALSAIAELLTSEHERVVKAASGALRNLAVDARNKELIGKHAIPNLVKNLPGGQQNSSWNFSEDTVVSILNTINEVIAENLEAAKKLRETQGIEKLVLINKSGNRSEKEVRAAALVLQTIWGYKELRKPLEKEGWKKSDFQVNLNNASRSQSSHSYDDSTLPLIDRNQKSDKKPDREEIPMSNMGSNTKSLDNNYSTLNERGDHNRTLDRSGDLGDMEPLKGAPLMQKI | – | binding [3]: binds |
